Experimental data taken from paper PMC9954420.
Results are given in words; binding and its absence hold for the method and conditions named. In cells and extracts the contact can be indirect. Binding calls can cover weak binding; strength is not graded here.

Protein sequences, listed by entry. Tags and fused reporters are not part of them. Lines headed by an entry give the natural chain unless they say otherwise; changes in a name come on top.
UniProt Q8C6B2: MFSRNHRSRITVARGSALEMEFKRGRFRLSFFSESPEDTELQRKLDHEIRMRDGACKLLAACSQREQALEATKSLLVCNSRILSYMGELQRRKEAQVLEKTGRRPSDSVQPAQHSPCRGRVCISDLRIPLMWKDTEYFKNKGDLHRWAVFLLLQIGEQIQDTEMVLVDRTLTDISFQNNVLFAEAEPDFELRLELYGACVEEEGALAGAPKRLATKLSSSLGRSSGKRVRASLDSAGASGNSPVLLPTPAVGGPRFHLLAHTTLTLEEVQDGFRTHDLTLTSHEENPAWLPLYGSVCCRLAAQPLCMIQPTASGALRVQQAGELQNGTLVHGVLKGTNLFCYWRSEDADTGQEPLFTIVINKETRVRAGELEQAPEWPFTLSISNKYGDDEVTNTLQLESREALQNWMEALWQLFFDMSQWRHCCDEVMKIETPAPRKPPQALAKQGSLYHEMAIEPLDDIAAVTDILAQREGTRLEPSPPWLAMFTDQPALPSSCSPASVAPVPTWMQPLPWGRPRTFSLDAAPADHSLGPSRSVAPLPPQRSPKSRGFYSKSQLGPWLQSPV
UniProt P61589: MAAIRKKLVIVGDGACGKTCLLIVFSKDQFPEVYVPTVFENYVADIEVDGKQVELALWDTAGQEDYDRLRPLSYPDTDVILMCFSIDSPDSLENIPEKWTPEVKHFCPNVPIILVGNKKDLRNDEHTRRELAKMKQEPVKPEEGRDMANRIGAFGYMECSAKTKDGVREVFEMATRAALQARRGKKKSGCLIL

Biological target: GST-Rhotekin-Rho-binding domain (UniProt Q8C6B2)
Experiment: pull-down; 0.1 mg GST-tagged probe (or GST as control) immobilized on glutathione agarose, incubated with lysates of 10 million RBL-2H3 cells (unstimulated, antigen-stimulated 0-20 min, GEF-H1 knockdown, or pretreated with taxol, nocodazole or the Syk inhibitor GS-9973); buffer A: 20 mM HEPES pH 7.5, 1% Triton X-100, 10 mM MgCl2, 150 mM NaCl, 5% glycerol; immunoblot; only the target purified

- binding: binds
Substance: RhoA (active, RhoA-GTP), endogenous in RBL-2H3 cells (from UniProt P61589 1-193)
